Source: the supplement of paper PMC6289059
Where “and” joins values, the source holds several entries; their conditions need not be identical. Equal entries are not always repeated. The list shows a part of the results. Many values rest on one well or one pass, so single values are uncertain.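 Hepatocyte-like cells derived from human stem cells with CRISPR-disrupted DGUOK model liver mtDNA depletion syndrome. Each well's ATP signal was scored against other wells on the same plate, and drugs scoring 3 or above were primary hits.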

system: DGUOK Δ14/Δ5 iPSC-derived hepatocyte-like cells (SV20); assay: ATP level (CellTiter-Glo luminescence) Z score relative to plate distribution, under 2-DG glycolysis block; higher = more cellular ATP (rescue of mitochondrial ATP production); settings: 5 µM; treatment time: day 15 to day 20 of differentiation (5 days); 2-deoxy-D-glucose: 20 mM for 24 h before assay

Row | Structure (SMILES) | ATP level
1 | CC12CC3CC(C)(C1)CC(N)(C3)C2 | inactive: 0.305
2 | CN1C(C(=O)Nc2ccccn2)=C(O)c2sc(Cl)cc2S1(=O)=O | inactive: 1.47
3 | CC(C)=CCc1c(O)cc2oc(C)cc(=O)c2c1O | inactive: -0.165
4 | COc1ccc(-c2cc(=O)c3c(OC)c(OC)c(OC)c(OC)c3o2)cc1 | inactive: -0.452
5 | C#C[C@]1(O)CC[C@H]2[C@@H]3CCC4=Cc5oncc5C[C@]4(C)[C@H]3CC[C@@]21C | inactive: 0.339
6 | Nc1ccc(S(=O)(=O)O)cc1.Nc1ccc(S(=O)(=O)O)cc1.[Zn] | active: 9.42
7 | CS(C)(=O)=O | inactive: -2.47
8 | O=C(Nc1ccc([N+](=O)[O-])cc1Cl)c1cc(Cl)ccc1O | inactive: -36.8
9 | CCOc1ccc(Cc2nccc3cc(OCC)c(OCC)cc23)cc1OCC | inactive: -4
10 | O=c1cc[nH]c(=O)[nH]1 | inactive: 1.26
11 | COc1ccc(-c2cc(=O)c3c(OC)c(OC)c(OC)c(OC)c3o2)cc1OC | inactive: -5.39
12 | CCCCC(CC)COc1ccc(-c2nc(-c3ccc(OC)cc3)nc(-c3ccc(OCC(CC)CCCC)cc3O)n2)c(O)c1 (stereo not given) | inactive: 1.43
13 | CC/C=C\C/C=C\C/C=C\C/C=C\C/C=C\C/C=C\CCC(=O)O | inactive: -0.851
14 | C=C1C(N)CC2CC1C2(C)C (stereo not drawn) [3-AMINO-beta-PINENE] | inactive: -1.54
15 | CCC[C@@H]1C[C@@H](C(=O)N[C@@H]([C@H]2O[C@H](SC)[C@H](O)[C@@H](O)[C@H]2O)[C@@H](C)O)N(C)C1 | inactive: 0.927
16 | CN1CCCN=C1/C=C/c1cccs1 | inactive: 0.427
17 | CCN(CC)CCNC(=O)c1cc(Br)c(N)cc1OC | inactive: -2.96
18 | CCCCC(=O)N(Cc1ccc(-c2ccccc2-c2nnn[nH]2)cc1)[C@H](C(=O)O)C(C)C | inactive: -1.03
19 | C[C@H]1C(=O)CC[C@@H]2[C@]1(C)CC[C@H]1[C@@]2(C)CC[C@@]2(C)[C@@H]3CC(C)(C)CC[C@]3(C)CC[C@]12C | inactive: -0.112
20 | OC(CCN1CCCCC1)(c1ccccc1)c1ccccc1 | inactive: -2.14
21 | O=C(O)c1cc(=O)c2ccccc2[nH]1 | inactive: -2.94
22 | CC(C)NNC(=O)c1ccncc1 | inactive: 0.798
23 | CSCC[C@H](NC(=O)[C@H](Cc1c[nH]c2ccccc12)NC(=O)CCNC(=O)OC(C)(C)C)C(=O)N[C@@H](CC(=O)O)C(=O)N[C@@H](Cc1ccccc1)C(N)=O | active: 4.56
24 | O=C1c2cccc(O)c2C(=O)c2c(O)cccc21 | inactive: -1.22
25 | CCOC(N)=O | inactive: -24.7
26 | COc1ccc(-c2coc3cc(O)ccc3c2=O)c(OC)c1 | inactive: -2.77
27 | C[C@H]1[C@H](C)CC[C@]2(C(=O)O)CC[C@]3(C)C(=CC[C@@H]4[C@@]5(C)C[C@@H](O)[C@H](O)[C@@](C)(CO)[C@@H]5[C@H](O)C[C@]43C)[C@H]12 | inactive: 1.49
28 | O=C(O)CCC(=O)c1ccc(-c2ccccc2)cc1 | inactive: 1.65

A different layout for some results above.
Row	Structure (SMILES)	ATP level
15	CCC[C@@H]1C[C@@H](C(=O)N[C@@H]([C@H]2O[C@H](SC)[C@H](O)[C@@H](O)[C@H]2O)[C@@H](C)O)N(C)C1	inactive: 0.927
16	CN1CCCN=C1/C=C/c1cccs1	inactive: 0.427

Following part:

Row | Structure (SMILES) | ATP level
29 | CN1CCN2c3ccccc3Cc3ccccc3C2C1 (stereo not given) | inactive: -10.6
30 | CCC(C)C(NC)C(=O)O (stereo not given) | inactive: -0.174
31 | N[C@@H](Cc1ccc(O)c(O)c1)C(=O)O | inactive: 2.35
32 | CN(C)CCc1c[nH]c2ccc(CS(=O)(=O)N3CCCC3)cc12 | inactive: -0.217
33 | CC(=O)O[C@H]1CC[C@@]2(C)C(=CC=C3[C@@H]4CC[C@H]([C@H](C)/C=C/[C@H](C)C(C)C)[C@@]4(C)CC[C@@H]32)C1 | inactive: 0.597
34 | COc1cc(O)cc(OC)c1OC | inactive: 0.785
35 | O=C(NC(Cc1cc(=O)[nH]c2ccccc12)C(=O)O)c1ccc(Cl)cc1 (stereo not given) | inactive: 0.912
36 | CC(C)(C)NC[C@H](O)COc1cccc2c1CCCC2=O | inactive: -1.48
37 | C[N+](C)(C)CCOC(N)=O | inactive: -0.669
38 | COC(=O)[C@H]1[C@H]2C[C@H]3c4[nH]c5cc(OC)ccc5c4CCN3C[C@H]2C[C@@H](OC(=O)c2cc(OC)c(OC)c(OC)c2)[C@@H]1OC | inactive: -2.64
39 | COC(=O)/C=C/C(=O)OC | active: 3.36
40 | C[C@H](CCC(=O)O)[C@H]1CC[C@H]2[C@@H]3C(=O)C[C@@H]4CC(=O)CC[C@]4(C)[C@H]3CC(=O)[C@]12C | inactive: 1.4 and inactive: 1.13
41 | CO[C@H]1C[C@H](O[C@@H]2/C(C)=C/C[C@@H]3C[C@@H](C[C@]4(CC[C@H](C)[C@@H](C5CCCCC5)O4)O3)OC(=O)[C@@H]3C=C(C)/C(=N/O)[C@H]4OC/C(=C\C=C\[C@@H]2C)[C@]43O)O[C@@H](C)[C@@H]1O | inactive: -12.1
42 | Cc1nc2sccn2c(=O)c1CCN1CCC(=C(c2ccc(F)cc2)c2ccc(F)cc2)CC1 | inactive: -6.45
43 | O=C1c2c(O)ccc(O)c2C(=O)c2c(NCCNCCO)ccc(NCCNCCO)c21 | inactive: -35.2
44 | CCc1nn(CCCN2CCN(c3cccc(Cl)c3)CC2)c(=O)n1CCOc1ccccc1 | inactive: -1.08
45 | CCCNC(C)(C)COC(=O)c1ccccc1 | inactive: -0.519
46 | COc1ccc(C(C)=O)c(OC)c1 | inactive: 1.51
47 | CC(NCCc1ccc(O)cc1)C(O)c1ccc(O)cc1 (stereo not given) | inactive: -12.7
48 | NC(Cc1ccc(Cl)cc1)C(=O)O (racemic) | inactive: 0.578
49 | O=C1C=CC2=C3c4cc(O)c(O)cc4CC3(O)COC2=C1O (stereo not given) | active: 3.76
50 | CCC1(C)CC(=O)NC1=O (stereo not given) | inactive: 1.11
51 | NC[C@@H]1O[C@H](O[C@H]2[C@@H](O)[C@H](O[C@@H]3[C@@H](O)[C@H](N)C[C@H](N)[C@H]3O[C@H]3O[C@H](CN)[C@@H](O)[C@H](O)[C@H]3N)O[C@@H]2CO)[C@H](N)[C@@H](O)[C@@H]1O | inactive: 1.32
52 | NC1CCN(c2c(F)cc3c(=O)c(C(=O)O)cn(C4CC4)c3c2Cl)C1 (stereo not given) | inactive: -3.24
53 | CC(=O)Nc1ccc(OC(C)=O)cc1 | inactive: 0.259
54 | O=[N+]([O-])c1ccc(O)c2ncccc12 | inactive: -0.596
55 | CCCc1nn(C)c2c(=O)[nH]c(-c3cc(S(=O)(=O)N4CCN(C)CC4)ccc3OCC)nc12 | inactive: 1.85

Of the compounds above, six have four or more nitrogen atoms:
Row | Structure (SMILES) | ATP level
18 | CCCCC(=O)N(Cc1ccc(-c2ccccc2-c2nnn[nH]2)cc1)[C@H](C(=O)O)C(C)C | inactive: -1.03
23 | CSCC[C@H](NC(=O)[C@H](Cc1c[nH]c2ccccc12)NC(=O)CCNC(=O)OC(C)(C)C)C(=O)N[C@@H](CC(=O)O)C(=O)N[C@@H](Cc1ccccc1)C(N)=O | active: 4.56
43 | O=C1c2c(O)ccc(O)c2C(=O)c2c(NCCNCCO)ccc(NCCNCCO)c21 | inactive: -35.2
44 | CCc1nn(CCCN2CCN(c3cccc(Cl)c3)CC2)c(=O)n1CCOc1ccccc1 | inactive: -1.08
51 | NC[C@@H]1O[C@H](O[C@H]2[C@@H](O)[C@H](O[C@@H]3[C@@H](O)[C@H](N)C[C@H](N)[C@H]3O[C@H]3O[C@H](CN)[C@@H](O)[C@H](O)[C@H]3N)O[C@@H]2CO)[C@H](N)[C@@H](O)[C@@H]1O | inactive: 1.32
55 | CCCc1nn(C)c2c(=O)[nH]c(-c3cc(S(=O)(=O)N4CCN(C)CC4)ccc3OCC)nc12 | inactive: 1.85
